Experimental data published in article PMC8446450, “Autosomal Recessive Cutis Laxa 1C Mutations Disrupt the Structure and Interactions of Latent TGFβ Binding Protein-4” (Frontiers in Genetics, 2021).
These are yes or no findings as the source states them, for the method shown.

Legend:
[1] = molecular target: Latent TGFβ binding protein-4 (LTBP4S) N-terminal region, wild type (human) (UniProt Q8N2S1); test: AUC; sedimentation velocity, 0.4-1 mg/ml, 10 mM Tris, 150 mM NaCl, pH 7.4, 45,000 rpm, 20°C; both purified
[2] = molecular target: Latent TGFβ binding protein-4 (LTBP4S) N-terminal region, wild type (human) (UniProt Q8N2S1); test: SEC-MALS; 0.5 ml at approximately 0.4-1 mg/ml on Superdex 200 10/300GL, 10 mM Tris, 150 mM NaCl, pH 7.4; both purified
[3] = molecular target: Latent TGFβ binding protein-4 (LTBP4S) C-terminal region, wild type (human) (UniProt Q8N2S1); test: AUC; sedimentation velocity, 0.4-1 mg/ml, 10 mM Tris, 150 mM NaCl, pH 7.4, 45,000 rpm, 20°C; both purified
[4] = molecular target: Latent TGFβ binding protein-4 (LTBP4S) C-terminal region, wild type (human) (UniProt Q8N2S1); test: SEC-MALS; 0.5 ml at approximately 0.4-1 mg/ml on Superdex 200 10/300GL, 10 mM Tris, 150 mM NaCl, pH 7.4; both purified

B1: Latent TGFβ binding protein-4 (LTBP4S) N-terminal region, wild type (domain or fragment, human, UniProt Q8N2S1-2 29-394, looked up)
chain: GERLRVRFTPVVCGLRCVHGPTGSRCTPTCAPRNATSVDSGAPGGAAPGGPGFRAFLCPLICHNGGVCVKPDRCLCPPDFAGKFCQLHSSGARPPAPAVPGLTRSVYTMPLANHRDDEHGVASMVSVHVEHPQEASVVVHQVERVSGPWEEADAEAVARAEAAARAEAAAPYTVLAQSAPREDGYSDASGFGYCFRELRGGECASPLPGLRTQEVCCRGAGLAWGVHDCQLCSERLGNSERVSAPDGPCPTGFERVNGSCEDVDECATGGRCQHGECANTRGGYTCVCPDGFLLDSSRSSCISQHVISEAKGPCFRVLRDGGCSLPILRNITKQICCCSRVGKAWGRGCQLCPPFGSEGFREICPA
notes: numbers count on: LTBP4S; N-glycosylated (PNGase-F shift); Biotinylated when immobilised on streptavidin biosensors in the fibronectin BLI experiment (general BLI methods); also called NWT; LTBP4 N-terminal region
For B1, the binding [1] was “no binding (tested: 0.4–1 mg/ml)” and the binding [2] was “no binding (tested: 0.4–1 mg/ml)”.

B2: Latent TGFβ binding protein-4 (LTBP4S) C-terminal region, wild type (domain or fragment, human, UniProt Q8N2S1-2 1114-1557, looked up)
chain: RECYFDTAAPDACDNILARNVTWQECCCTVGEGWGSGCRIQQCPGTETAEYQSLCPHGRGYLAPSGDLSLRRDVDECQLFRDQVCKSGVCVNTAPGYSCYCSNGYYYHTQRLECIDNDECADEEPACEGGRCVNTVGSYHCTCEPPLVLDGSQRRCVSNESQSLDDNLGVCWQEVGADLVCSHPRLDRQATYTECCCLYGEAWGMDCALCPAQDSDDFEALCNVLRPPAYSPPRPGGFGLPYEYGPDLGPPYQGLPYGPELYPPPALPYDPYPPPPGPFARREAPYGAPRFDMPDFEDDGGPYGESEAPAPPGPGTRWPYRSRDTRRSFPEPEEPPEGGSYAGSLAEPYEELEAEECGILDGCTNGRCVRVPEGFTCRCFDGYRLDMTRMACVDINECDEAEAASPLCVNARCLNTDGSFRCICRPGFAPTHQPHHCAPARPRA
notes: numbers count on: LTBP4S; N-glycosylated (PNGase-F shift); also called CWT; C WT
With B2 the binding [3] was “no binding (tested: 0.4–1 mg/ml)” and the binding [4] was “no binding (tested: 0.4–1 mg/ml)”.
